For experiment [1], the target named is T1, Gos1-FLAG (S. cerevisiae) (UniProt P38736).
T1 sequence: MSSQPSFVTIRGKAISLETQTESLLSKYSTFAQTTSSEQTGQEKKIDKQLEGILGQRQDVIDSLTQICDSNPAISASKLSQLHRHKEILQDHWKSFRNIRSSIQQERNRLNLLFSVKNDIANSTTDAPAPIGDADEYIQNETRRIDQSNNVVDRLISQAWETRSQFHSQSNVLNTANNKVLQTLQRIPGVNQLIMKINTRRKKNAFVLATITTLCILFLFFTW
Nature of the experiment: co-IP; anti-FLAG beads from yeast lysate, 'w/o Ub' conditions: no DUB inhibitors in the lysis buffer, immunoprecipitate treated with Usp2, AMSH and OTULIN; blots for COPI, Arf, GST.

Chains of the proteins cited; added tags and fusions are not shown. Lines headed by an entry give the natural chain unless they say otherwise; changes in a name come on top.
UniProt P53622: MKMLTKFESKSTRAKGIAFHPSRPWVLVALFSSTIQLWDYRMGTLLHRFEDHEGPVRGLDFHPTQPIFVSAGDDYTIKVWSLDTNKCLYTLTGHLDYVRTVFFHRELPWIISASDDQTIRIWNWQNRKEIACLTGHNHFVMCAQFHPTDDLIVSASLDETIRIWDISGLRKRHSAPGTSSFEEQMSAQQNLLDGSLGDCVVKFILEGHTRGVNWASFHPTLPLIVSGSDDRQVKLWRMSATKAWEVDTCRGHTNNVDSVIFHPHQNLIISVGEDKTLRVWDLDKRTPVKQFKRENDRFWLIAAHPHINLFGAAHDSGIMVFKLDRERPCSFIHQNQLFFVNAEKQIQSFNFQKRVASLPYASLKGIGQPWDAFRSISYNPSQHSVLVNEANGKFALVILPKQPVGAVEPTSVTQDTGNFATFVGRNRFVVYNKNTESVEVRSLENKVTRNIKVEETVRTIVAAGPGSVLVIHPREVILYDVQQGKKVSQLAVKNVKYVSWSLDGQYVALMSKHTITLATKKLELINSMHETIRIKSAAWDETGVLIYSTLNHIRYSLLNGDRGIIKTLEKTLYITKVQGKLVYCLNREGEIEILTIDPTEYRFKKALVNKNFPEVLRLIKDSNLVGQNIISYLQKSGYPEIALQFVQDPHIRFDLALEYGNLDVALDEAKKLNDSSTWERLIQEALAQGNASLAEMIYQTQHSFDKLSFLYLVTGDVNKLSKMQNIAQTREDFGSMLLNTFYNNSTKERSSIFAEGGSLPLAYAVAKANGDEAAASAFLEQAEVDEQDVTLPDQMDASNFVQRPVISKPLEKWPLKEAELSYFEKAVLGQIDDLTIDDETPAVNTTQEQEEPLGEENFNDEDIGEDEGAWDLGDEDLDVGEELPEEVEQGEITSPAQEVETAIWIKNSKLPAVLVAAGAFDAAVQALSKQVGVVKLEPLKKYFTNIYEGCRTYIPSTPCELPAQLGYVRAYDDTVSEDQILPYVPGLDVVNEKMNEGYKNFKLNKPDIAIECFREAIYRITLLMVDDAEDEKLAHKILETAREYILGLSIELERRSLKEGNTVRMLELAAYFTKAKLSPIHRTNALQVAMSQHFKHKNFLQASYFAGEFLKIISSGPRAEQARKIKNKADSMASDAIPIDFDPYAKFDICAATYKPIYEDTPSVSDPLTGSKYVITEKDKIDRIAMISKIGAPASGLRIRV

The target in experiment [2] is T1, Gos1-FLAG (S. cerevisiae). In words: co-IP; anti-FLAG beads from yeast lysate, 'w Ub' conditions: DUB inhibitors in the lysis buffer (0.2% NP40), mock treatment after the IP; blots for COPI, Arf, GST; untagged cells as control.
The target in experiment [3] is T2, Bet1-FLAG (S. cerevisiae) (UniProt P22804).
T2 sequence: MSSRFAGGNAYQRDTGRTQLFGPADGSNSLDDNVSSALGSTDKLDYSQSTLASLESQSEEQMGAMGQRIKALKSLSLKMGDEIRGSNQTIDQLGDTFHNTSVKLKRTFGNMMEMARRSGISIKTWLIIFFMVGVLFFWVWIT
Described as above.

Experimental findings from publication PMC9374436 are described below.

No constants are given. Whether binding was seen depends on the method and setting. In cells and extracts the contact can be indirect. Some binding calls cover weakened binding; strength is not graded here. Sequences can lack the tags named with a protein.

As for “COPI (coatomer protein I) (from UniProt P53622 1-1201; P41810 1-973; P41811 1-889; P32074 1-935; P43621 1-546; P40509 1-296; P53600 1-189) (complex)”, the results for the binding entry in experiment [1], in experiment [2] and in experiment [3] were “binds weakly”, “binds” and “binds”, respectively.
